Percent effect of library compounds

The filed quantity is “Percent Effect” (%).
How 0% and 100% were set is not recorded. Most values in the screen are low, and negative values occur.
Compounds were drawn at random from those tested, without regard to their results.
Two or more numbers in one place are separate tests of the same structure; such repeats can differ widely.
A dash means the value is not listed here; it may have been measured.

T. brucei: 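Whole-parasite assay of Trypanosoma brucei over 72 hours; the read-out is not stated. Tested at 30 µM. Higher reads as stronger inhibition (inferred: compounds with an IC50 in retests scored well above the rest). Values scatter widely below zero; nearly all retest evidence comes from the higher of the two concentrations used. Of about 64,000 compounds tested this way, about 940 (1.5%) reached 50% or more in at least one test.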
Leishmania in macrophages: 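Cell assay of Leishmania donovani living inside macrophages; the read-out is not stated. Concentration: 30 µM. Direction is inferred from retests: higher values go with stronger inhibition. Of about 69,000 compounds tested this way, about 1,000 (1.5%) reached 50% or more in at least one test.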
Toxoplasma: 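Assay of Toxoplasma gondii numbers, read through their beta-galactosidase reporter with a colour substrate. Compounds at 10 µM. The record gives no direction; the compounds picked for IC50 retests had high values, so higher reads as fewer parasites. Of about 67,000 compounds tested this way, about 260 (0.38%) reached 50% or more in at least one test.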

| Compound | T. brucei | Leishmania in macrophages | Toxoplasma |
|---|---|---|---|
| `Cc1nn(C)c(Cl)c1C(=O)NCC1(C(N)=O)CCOCC1` | -14.65% | 8.618% | -10.95% |
| `Cc1cccc(CN2CCN(c3ncnc4[nH]cnc34)CC2CCO)n1` (stereo not drawn) | 23.98% | 12.88% | -0.9859% |
| `Cc1c(Br)cccc1CSc1nnc(CO)n1C` | -26.95% | 9.539% | -9.735% |
| `COc1ccc2c(ccn2CCC(=O)Nc2n[nH]c(CC(C)C)n2)c1` | -15.4% | -2.003% | - |
| `Cc1nn(-c2ccccn2)c(C)c1[C@@H]1C=C[C@@H](NC(=O)NC(C)C)C1` | -2.957% | 10.96% | 3.372% |
| `CCn1c(C2CCCN(C(=O)c3ccc[nH]3)C2)nn(CCN(C)C)c1=O` (stereo not drawn) | -16.46% | -28.49% | -7.38% |
| `CCn1ccnc1CN1CCCC1c1c(C)nn(C)c1OC` (stereo not drawn) | -43.58% | 38.81% | 5.405% |
| `Cc1cnc(C(=O)N2CCCN(c3nc(C)cs3)CC2)cn1` | -5.621% | 5.737% | -2.408% |
| `CN(Cc1ccsc1)C(=O)c1ccc(S(=O)(=O)NC(C)(C)C)cc1` | - | 21.19% | -0.3839% |
| `Cc1cc(CN2CCN(S(C)(=O)=O)CC(C(=O)N(C)C)C2)no1` (stereo not drawn) | -2.529% | 24.44% and 20.11% | -7.246% |
| `Cc1cnn(C2CN(CC(=O)NCC3(c4ccccc4)CC3)C2)c1` | -27.54% | 12.9% | -14.67% |
| `O=C(O)C(F)(F)F.[H][C@@]12CN(Cc3nccs3)CCC[C@]1(C(=O)OCC)CN(C(C)=O)C2` | -22.3% | -5.818% | 0.7761% |
| `c1ccc(N2CCN(Cc3cnc(C4CCCCO4)nc3)CC2)cc1` (stereo not drawn) | - | 19.2% | 12.47% |
| `Cc1cncc(C(=O)N2CCCC(C(=O)CCc3ccccc3)C2)c1` (stereo not drawn) | -54.48% | -4.582% | 1.861% |
| `CC(C)n1[nH]c(=O)c2c1NC(=O)CC2c1cccc(Br)c1` (stereo not drawn) | -4.589% | 17.48% | 2.162% |
| `COCC(O)CN1CCC(=O)N(CC2CC2)Cc2ccccc21` (stereo not drawn) | -37.62% | -8.822% | -2.316% |
| `CC(C)Oc1ccc(C(=O)Nc2nncs2)cn1` | -33.77% | 32.24% | 3.776% |
| `CCOc1ccc(C(=O)Nc2c(C)nc3cccc(C)n3c2=O)cc1` | -28.57% | 21.46% | -1.067% |
| `CCSCCNC(=O)C(c1cccc(F)c1)N(C)C` (stereo not drawn) | -21.1% | 10.76% | -3.116% |
| `Clc1ccccc1-c1nc(CNCCn2cccn2)cs1` | 18.28% | 33.79% | 7.198% |
| `CNC(=O)COC(=O)c1cccc(-n2ccc(C(F)(F)F)n2)c1` | -41.78% | 6.27% | -31.58% |
| `Cl.c1cncc(CNCc2cccs2)c1` | - | -17.56% | - |
| `Cc1ccc(S(=O)(=O)Nc2ccc(-n3ccnc3C)nc2)cc1N(C)C` | 4.064% | 4.269% | -2.277% |
| `CN(C)c1ncccc1CNC(=O)NCC(c1cccs1)N(C)C` (stereo not drawn) | -22.64% | -14.73% | 16.83% |
| `COc1cc(N2CCCn3cnc(COC(C)C)c3C2)ncn1.O=CO` | -74.57% | 3.162% and -13.89% | -13.98% |
| `Cc1cnn(Cc2cc(F)ccc2F)c1NC(=O)CNC(=O)C1CC1` | -20.71% | 22.49% | - |
| `CCOc1ccc(Cl)cc1CCNC(=O)N1CCCC(CO)C1` (stereo not drawn) | -23.44% | 11.71% | -4.873% |
| `Cc1cnn(CC2CCCCN2C(=O)Cc2cccc(F)c2)c1` (stereo not drawn) | -5.967% | 26.46% | -19.35% |
| `COC(=O)CN1CC2(CCNCC2)COc2ccccc2S1(=O)=O.O=C(O)C(F)(F)F` | -19.66% | 27.16% | -15.82% |
| `NC(=O)c1ccc(CN2C(=O)C3(CCNCC3)Nc3ccccc32)cc1` | 8.328% | 29.82% | 4.888% |
| `CO[C@@H]1CN(c2ccccc2)S(=O)(=O)[C@@]12CCN(C(C)=O)C2` | -16.89% | -2.779% | -12.16% |
| `NC(=O)C1CCN(C(=O)c2cc(S(=O)(=O)N3CCCC3)cs2)CC1` | -3.535% | 10.33% | -0.1679% |
| `Cc1ccc(CN(C(=O)C(C)S(C)(=O)=O)C2CC2)cc1C` (stereo not drawn) | -15.75% | 4.113% | 10.14% |
| `[H][C@]12CC[C@]([H])(CN(C(=O)C3CCC3)C1)N(Cc1cnc(NCC)nc1)C2` | -1.434% | -19.53% | -3.744% |
| `Cn1c2ccccc2c2ncn(CCCN3CCOCC3)c(=O)c21` | -57.15% | 6.952% | 14.29% |
| `Cc1cccc(-c2nc(CN3CCc4cnc(C)nc4C3)no2)c1` | 3.286% | 10.28% | -0.5294% |
| `O=C(C1CC=CC1)N1CCc2ncnc(-c3ccncc3)c2CC1` | -6.288% | -24.27% | 0.2463% |
| `CCCn1cnc(NC(=O)NCC2CCS(=O)(=O)C2)n1` (stereo not drawn) | -14.23% | -8.347% | 2.66% |
| `Cc1oc(-c2nc(C#N)c(NC(C)(C)C)o2)cc1S(=O)(=O)N1CCCC1` | -26.19% | -22.42% | -9.174% |
| `CCCn1nnnc1CSCc1cn2c(C)cccc2n1` | -3.02% | 23.57% | 1.359% |
| `[H][C@@]12CS(=O)(=O)C[C@]1([H])N(C(=O)CCn1cc(C)cn1)CCN2C(=O)C1CC1` | 64.13% | 9.64% | -39.53% |
| `Cc1nc(C)c(C(=O)NCc2nc3cccc(C)c3n2C)o1` | -20.55% | 41.15% | 16.89% |
| `COc1cccc(-c2cc(-c3nc(CN4CCN(C)CC4)no3)[nH]n2)c1` | -2.574% | 22.44% | 9.52% |
| `O=C(NCCSCc1ccc(Br)s1)C1CCCN(c2cnccn2)C1` (stereo not drawn) | -0.7253% | -5.87% | -7.876% |
| `CC(C(N)=O)N(C)Cc1ccccc1C(F)(F)F` (stereo not drawn) | -87.21% | -40.32% | 24.86% |
| `Cc1nc(C(C)C)sc1C(=O)NCCn1nc2ccccn2c1=O` | - | 16.87% | 2.584% |
| `O=C(c1cccnc1O)N(Cc1cccs1)CC1CCCO1` (stereo not drawn) | -17.88% | 22.16% | 4.155% |
| `Cc1occc1C(=O)N1CCC2(CCN(Cc3nccs3)CC2)C1` | -18.86% | 0.09952% | -3.556% |
| `O=C(Nc1ccccc1CCO)c1cccc(CN2CC[C@H](O)C2)c1` | - | -0.6296% | -14.02% |
| `Cc1ccc(CN2CCc3onc(COc4cccnc4)c3C2)s1.O=C(O)C(F)(F)F.O=C(O)C(F)(F)F` | -19.97% | -45.52% | -0.6711% |
| `CCC(NCc1ncc[nH]1)c1nc(C(F)(F)F)cs1` (stereo not drawn) | -15.41% | -17.04% | -3.262% |
| `Cc1nc(C)n(C2CCCN(C(=O)c3cn4cccnc4n3)C2)n1` (stereo not drawn) | -17.46% | -28.43% | -12.77% |
| `Cc1noc(C)c1CN(C)C(=O)C1CCCCN1S(C)(=O)=O` (stereo not drawn) | -24.66% | 0.8016% | 3.047% |
| `CN1CCN(C(=O)COCc2nc(-c3ccncc3)no2)CC1` | - | -84.3% | -18.27% |
| `Cn1cc(CCNC(=O)NC2CCS(=O)(=O)C2)cn1` (stereo not drawn) | 36.29% | -8.357% | 1.047% |
| `Cc1ncc(-c2ccnc(NCCO)n2)c(C2CCCCC2)n1` | -18.72% | 15.7% and -1.994% | 1.27% |
| `COc1cc(C(=O)NCC2CC2)nc2c(C)cc(F)cc12` | -43.04% | 32.22% | - |
| `CNc1cccc(C2CN(C(=O)c3c[nH]cn3)CCO2)n1` (stereo not drawn) | 1.414% | -28.33% | -2.746% |
| `Cc1cccc(C(C(=O)N(C)Cc2cc(C)no2)N(C)C)c1` (stereo not drawn) | 10.75% | 16.45% | 7.998% |
| `CC(C(=O)NCc1ccnc(OC2CCCC2)c1)n1cncn1` (stereo not drawn) | -52.77% | 30.19% | -4.804% |
| `COc1ccc(-n2cnnc2SCC(=O)NC(C)C)cn1` | 21.81% | 18.75% | 10.93% |
| `CCN(CC)c1ccc2ccc(C(=O)N(C)C)cn12` | -64.01% | -6.173% | 1.968% |
| `O=C(CCc1nc2cccnc2[nH]1)Nc1ccc2c(c1)OCC(=O)N2` | -4.493% | 18.36% | 8.615% |

For reference, 8 entries once more:

Compound,T. brucei,Leishmania in macrophages,Toxoplasma
Cc1noc(C)c1CN(C)C(=O)C1CCCCN1S(C)(=O)=O (stereo not drawn),-24.66%,0.8016%,3.047%
Cc1oc(-c2nc(C#N)c(NC(C)(C)C)o2)cc1S(=O)(=O)N1CCCC1,-26.19%,-22.42%,-9.174%
Cc1nc(C)c(C(=O)NCc2nc3cccc(C)c3n2C)o1,-20.55%,41.15%,16.89%
O=C(c1cccnc1O)N(Cc1cccs1)CC1CCCO1 (stereo not drawn),-17.88%,22.16%,4.155%
COc1ccc(-n2cnnc2SCC(=O)NC(C)C)cn1,21.81%,18.75%,10.93%
COc1cc(C(=O)NCC2CC2)nc2c(C)cc(F)cc12,-43.04%,32.22%,-
Cc1c(Br)cccc1CSc1nnc(CO)n1C,-26.95%,9.539%,-9.735%
CCn1c(C2CCCN(C(=O)c3ccc[nH]3)C2)nn(CCN(C)C)c1=O (stereo not drawn),-16.46%,-28.49%,-7.38%

From ChEMBL document CHEMBL3988442, “University of Dundee, Small-Polar-MMV Screening Library” (2021).